Experimental data published in the supplement of paper PMC12462457.
± gives the standard deviation of the averaged measurements. The list shows a part of the results. Single values are uncertain here, since repeats match poorly.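 Cell counts came from imaging DAPI-stained nuclei, excluding as dead any cells lacking phalloidin-stained cytoplasm. Counts per well were normalized to the median vehicle-well count on that plate, and the values were averaged over two replicate plates.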

Tested on: OVCAR8
Assay: cell count relative to DMSO vehicle (fold change); higher = more surviving senescent cells (less killing)
Conditions: senescence inducer: cisplatin 10 µM 48 h, then 6 d recovery (CP senescent), exposure time 24 h

SMILES	cell count (compound dose 1 µM)	cell count (compound dose 5 µM)
CN1C(=O)N[C@H](Cc2c[nH]c3c(Cl)cccc23)C1=O [Necrostatin 2]	1.31 ± 0.15	1.5 ± 0.36
O=C(O)Cn1nnc(-c2ccc(CN(CCCCOc3ccc(CN4CCCC4)cc3)CCc3ccccc3)cc2)n1	0.927 ± 0.03	1.13 ± 0.013
O=C(O)C1=CC(=C(c2ccc(O)c(C(=O)O)c2)c2ccc(O)c(C(=O)O)c2)C=CC1=O [Aurintricarboxylic acid]	0.993 ± 0.095	0.767 ± 0.024
CC1=NN(c2ccc(C)c(C)c2)C(=O)/C1=N\Nc1cccc(-c2cccc(C(=O)O)c2)c1O [Eltrombopag]	1.1 ± 0.0099	0.831 ± 0.21
COc1ccc(-c2cc(=O)c3c(O)c(OC)c(OC)c(OC)c3o2)cc1	0.864 ± 0.05	0.853 ± 0.05
CCCCCCCC/C=C/CCCCCCCC(=O)OC[C@H]1O[C@@H](n2ccc(N)nc2=O)C(F)(F)[C@@H]1O [Gemcitabine (elaidate)]	0.957 ± 0.0071	1.17 ± 0.04
Cc1cc(/C=C2\CC/C(=C\c3cc(C)c(O)c(C)c3)C2=O)cc(C)c1O [Pentagamavunon-1]	0.937 ± 0.054	0.717 ± 0.36
CCCOc1ccc2[nH]c(NC(=O)OC)nc2c1	1 ± 0.061	0.718 ± 0.045
C[C@]12C=CC(=O)N[C@@H]1CC[C@@H]1[C@@H]2CC[C@]2(C)[C@@H](C(=O)Nc3cc(C(F)(F)F)ccc3C(F)(F)F)CC[C@@H]12 [Dutasteride]	0.806 ± 0.025	0.816 ± 0.078
COc1ccc(-c2nc(N3CCOCC3)c3sc(CN(C)c4ncc(C(=O)NO)cn4)cc3n2)cn1	0.261 ± 0.033	0.182 ± 0.033
O=C(Nc1ccccc1-c1cn2c(CN3CC[C@@H](O)C3)csc2n1)c1ccc2ccccc2c1	0.9205 ± 0.0092	1.02 ± 0.053
Cc1cnc(Nc2ccc(OCCN3CCCC3)cc2)nc1Nc1cccc(S(=O)(=O)NC(C)(C)C)c1	1.1 ± 0.044	0.314 ± 0.16
c1ccc2c(CCNc3ccc(Nc4ccncc4)cc3)c[nH]c2c1 [Serdemetan]	1.22 ± 0.067	0.728 ± 0.0071
COc1ccc(/C=C/c2cc(O)cc(O[C@@H]3O[C@H](CO)[C@@H](O)[C@H](O)[C@H]3O)c2)cc1 [Desoxyrhaponticin]	1.15 ± 0.099	0.831 ± 0.36
O=C(/C=C/c1ccc(O)c(O)c1)O[C@@H]1C[C@@](O)(C(=O)O)C[C@@H](O)[C@@H]1O [Neochlorogenic acid]	1.111 ± 0.005	1.34 ± 0.067
C=C1C(=O)O[C@@H]2C[C@@]3(C)CCCC(=C)[C@@H]3C[C@H]12 [Isoalantolactone]	0.953 ± 0.25	0.966 ± 0.1
CC(C)[C@@H](C)[C@@H](O)[C@H](O)[C@@H](C)[C@H]1CC[C@H]2[C@@H]3COC(=O)[C@H]4C[C@H](O)[C@H](O)C[C@]4(C)[C@H]3CC[C@]12C [Epibrassinolide]	1.04 ± 0.22	1.03 ± 0.012
O=[N+]([O-])c1ccc(SCCCCCCO)c2nonc12	0.705 ± 0.075	0.05 ± 0.024
COc1ccc(Cl)cc1NC(=O)Nc1cc(C)nc2ccccc12	0.921 ± 0.2	0.735 ± 0.23

A different layout for some results above.
SMILES | cell count (compound dose 1 µM) | cell count (compound dose 5 µM)
O=C(Nc1ccccc1-c1cn2c(CN3CC[C@@H](O)C3)csc2n1)c1ccc2ccccc2c1 | 0.9205 ± 0.0092 | 1.02 ± 0.053
Cc1cnc(Nc2ccc(OCCN3CCCC3)cc2)nc1Nc1cccc(S(=O)(=O)NC(C)(C)C)c1 | 1.1 ± 0.044 | 0.314 ± 0.16
c1ccc2c(CCNc3ccc(Nc4ccncc4)cc3)c[nH]c2c1 [Serdemetan] | 1.22 ± 0.067 | 0.728 ± 0.0071
COc1ccc(/C=C/c2cc(O)cc(O[C@@H]3O[C@H](CO)[C@@H](O)[C@H](O)[C@H]3O)c2)cc1 [Desoxyrhaponticin] | 1.15 ± 0.099 | 0.831 ± 0.36
